Data: patent US20210278408A1, “METHODS OF TREATMENT OF CANCER WITH SUBSTITUTED PYRROLE AND PYRAZOLE COMPOUNDS AND DIAGNOSIS OF CANCERS SUSCEPTIBLE TO TREATMENT WITH SUBSTITUTED PYRROLE AND PYRAZOLE COMPOUNDS” (Bantam Pharmaceutical, LLC, priority 2018, published 2021)
Some of these results come from one statement about several compounds together.

Test system: panel of 96 tumor and 3 normal cell lines
Assay: Anti-proliferative activity in a panel of 99 cell lines, CellTiter-Glo, 72 hours
Assay type: cell-based, human
Conditions: overall
Experimental: Anti-proliferative activity of BTM compounds. The anti-proliferative activities of Compound A197 and Compound B19 were compared to 4EGI-1 (a known cancer cell growth inhibitor) in a panel of 99 tumor lines. Methods: A panel of 96 tumor and 3 normal cell lines were tested for sensitivity to the test compound. The cell lines were cultured in standard media and pipetted into 96-well plates at the required plating densities. The cells were acclimated for 24 hours prior to compound testing. Compound was prepared as a stock of 20 mM in DMSO. To prepare dose response curves compound was serially diluted in DMSO and dispensed into the plate wells using a Tecan D300e digital dispenser. The final DMSO concentration was 0.15%. After 72 hours of incubation cell number was determined using the CellTiter-Glo® protocol according to the manufacturers instructions (Promega). In this assay, ATP is measured as a surrogate of cell number. The activity of the compound is determined by comparing untreated cells with treated cells and calculating the % of signal retained. Compound activity is measured as an EC50 of maximum level of efficacy and the two are used to compute an activity area. The table below provides a comparison of activity in a data sample.

| Structure (SMILES) | potencies greater than 4EGI-1 |
| --- | --- |
| COC(=O)c1c(-c2cccc(F)c2)c(C)nn1-c1nc(C2=CCC(C(F)(F)F)CC2)c(SC(C)C)s1 (single isomer, unassigned) [Compound B19, methyl 4-(3-fluorophenyl)-1-(5-(isopropylthio)-4-(4-(trifluoromethyl)cyclohex-1-en-1-yl)thiazol-2-yl)-3-methyl-1H-pyrazole-5-carboxylate] | 50-100 × |
| Cc1nn(-c2nc(-c3ccc(C(F)(F)F)cc3)c(SC(C)C)s2)c(C(=O)O)c1-c1cccc(F)c1 [Compound A197, 4-(3-fluorophenyl)-1-(5-(isopropylthio)-4-(4-(trifluoromethyl)phenyl)thiazol-2-yl)-3-methyl-1H-pyrazole-5-carboxylic acid] | 50-100 × |
